Assay results reported in US6465433B1, “Boronic ester and acid compounds, synthesis and uses” (Millennium Pharmaceuticals, Inc., priority 1994, dated 2002).
At least one structure is not confirmed: it was looked up by name or label, or the drawing left a doubt.

How the values were obtained:
[1] = biological target: Human Pancreatic Chymotrypsin; assay: Kinetic assay: inhibition of Human Pancreatic Chymotrypsin; type: biochemical; details: Table V
rats = assay: Corticosterone-induced cachexia in rats (urinary 3-methylhistidine); type: in vivo, rat; details: corticosterone 100 mg/kg s.c. daily, subcutaneous osmotic pump approximately 120 μg/kg body weight/day, FIG. 1
I-CAM = assay: Cell-surface expression of I-CAM on TNF-α stimulated HUVECs; type: cell-based, human; details: TNF-α (100 U/mL) stimulated HUVECs; concentrations of 0.5 μM or above; 4 hours; FIG. 3
V-CAM = assay: Cell-surface expression of V-CAM on TNF-α stimulated HUVECs; type: cell-based, human; details: TNF-α (100 U/mL) stimulated HUVECs; concentrations of 0.5 μM or above; 16 hours; FIG. 3
NF-κB = assay: Activation of NF-κB, electrophoretic mobility shift assay in TNF-α stimulated MG63 osteosarcoma cells; type: cell-based; details: pretreatment for 1 hour, PRDII probe, FIG. 2
Protocol: Compounds can be tested for their ability to inhibit the activation of NF-κB by means of a DNA binding assay (Palombella, et al., Cell 78:773 (1994)). Whole-cell extracts are prepared from untreated or TNF-α treated cells that have been pretreated for 1 hour with the test compound. The DNA binding activity of NF-κB is measured by an electrophoretic mobility shift assay using the PRDII probe from the human IFN-β gene promoter.
This assay was performed as previously described (Palombella, et al. Cell, 78:773-785 (1994)). MG63 osteosarcoma cells were stimulated by treatment with TNF-α for the designated times. Whole cell extracts were prepared and analyzed by electrophoretic mobility shift assay using the PRDII probe from the human IFN-β gene promoter.

E-selectin = assay: Cell-surface expression of E-selectin on TNF-α stimulated HUVECs; type: cell-based, human; details: TNF-α (100 U/mL) stimulated HUVECs; concentrations of 0.5 μM or above; 4 hours; FIG. 3

Compound | Ki [1] [nM] | urinary output of 3-methylhistidine (rats) | cell-surface expression of I-CAM (I-CAM) | cell-surface expression of V-CAM (V-CAM) | NF-κB binding activity (NF-κB) | cell-surface expression of E-selectin (E-selectin)
CC(C)C[C@H](NC(=O)[C@H](Cc1ccccc1)NC(=O)N1CCOCC1)B(O)O [MG-309, N-(4-morpholine)carbonyl-L-phenylalanine-L-leucine boronic acid] | 465 |  |  |  |  | 
CC(C)C[C@H](NC(=O)[C@H](Cc1cccc2ccccc12)NC(=O)N1CCOCC1)B(O)O [MG-273, N-(4-Morpholine)carbonyl-β-(1-naphthyl)-L-alanine-L-leucine Boronic Acid] |  | reduced | significantly inhibited | significantly inhibited | inhibited | significantly inhibited
CC(C)C[C@H](NC(=O)[C@H](Cc1cccc2ccccc12)NS(=O)(=O)c1cccc2cccnc12)B(O)O [MG-296, N-(8-quinoline)sulfonyl-β-(1-naphthyl)-L-alanine-L-leucine boronic acid] | 75 |  |  |  |  | 
